We go through 35 compounds from PubChem BioAssay AID328 (DTP/NCI, 2004).

The list shows only some results of the screen, not a fair sample: it gathers tests that were run many times, whatever their T/C, doses with no T/C, and many T/C values between a quarter and a half above the control. Further doses and runs are listed elsewhere. T/C: endpoint of the treated group in % of that of the vehicle group. Some doses have a count of surviving animals in place of a T/C: the source files T/C as zero there, which appears to mark a toxic dose or a test without result, not a measured value. Some doses without a T/C left all or most animals alive at the check, yet need not have been tolerated: the source hardly ever lists a survival T/C far under the control, and the zero likely stands for such cases as well. Survivors were counted at the toxicity check, usually on the fifth day, unless a day is given; later deaths do not show. Schedules are NCI's codes, read here as Q, the interval in days (D) or hours (H), X, the number of doses. For survival time, this PubChem deposit counts one and a half times the control or more as active, and values a quarter to a half above the control carry no call in these data; other NCI protocols may use other cut-offs. Some entries were tested several times; the results are listed from low to high. Some T/C values carry the count of animals alive at the toxicity check (mostly the fifth day); without a count, all were alive then.

The experiment relates to BDF1 mice, P388 leukemia ip, median survival T/C. Nature of the experiment: NCI In Vivo Anticancer Drug Screen. Data for tumor model P388 Leukemia (intraperitoneal) in B6D2F1 (BDF1) mice. The conditions noted are these: T/C endpoint: median survival time, higher T/C = longer survival. In outline: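 Read-out is survival of treated animals expressed relative to the vehicle group, as a T/C ratio.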

[1] abbreviates: dose: 200.0 mg/kg/injection, schedule: Q01DX009 (ip), vehicle: saline with Tween-80.
[2] abbreviates: dose: 50.0 mg/kg/injection, schedule: Q01DX009 (ip), vehicle: saline.
Setting [3] is: dose: 25.0 mg/kg/injection, schedule: Q01DX009 (ip), vehicle: water.
The mark [4] stands for this setting: dose: 50.0 mg/kg/injection, schedule: Q01DX009 (ip), vehicle: saline with Tween-80.
Setting [5] is: dose: 100.0 mg/kg/injection, schedule: Q01DX009 (ip), vehicle: water.
Where [6] appears, read: dose: 200.0 mg/kg/injection, schedule: Q01DX009 (ip), vehicle: saline.
Setting [7] is: dose: 200.0 mg/kg/injection, schedule: Q01DX009 (ip), vehicle: water.
Setting [8] is: dose: 400.0 mg/kg/injection, schedule: Q01DX009 (ip), vehicle: water.
Setting [9] is: dose: 50.0 mg/kg/injection, schedule: Q01DX005 (ip), vehicle: saline with Tween-80.
Where [10] appears, read: dose: 400.0 mg/kg/injection, schedule: Q04DX003 (ip), vehicle: saline.
Where [11] appears, read: dose: 100.0 mg/kg/injection, schedule: Q01DX009 (ip), vehicle: saline with Tween-80.
Setting [12] is: dose: 400.0 mg/kg/injection, schedule: Q04DX003 (ip), vehicle: saline with Tween-80.

On to `COc1cc(Cl)ccc1C`, for which the T/C (dose: 132.0 mg/kg/injection, schedule: Q01DX009 (ip), vehicle: saline with Tween-80) is 128 % of control and the T/C under setting [1] is 130 % of control. Besides, the survivor count (dose: 300.0 mg/kg/injection, schedule: Q01DX009 (ip), vehicle: saline with Tween-80) is 6 of 6.
As for `O=C1OC(=O)c2c(Br)c(Br)c(Br)c(Br)c21`, the survivor count (dose: 16.5 mg/kg/injection, schedule: Q01DX009 (ip), vehicle: saline with Tween-80) is given as 6 of 6.
As for `O=C1NC(=O)C(F)(F)C(O)N1` (stereo not given), for the setting “dose: 18.0 mg/kg/injection, schedule: Q01DX009 (ip), vehicle: saline”, the T/C was 140 % of control.
For the compound `O=Cc1[nH]c(=O)[nH]c(=O)c1Br`, the T/C is 133 % of control (dose: 100.0 mg/kg/injection, schedule: Q04DX003 (ip), vehicle: saline with Tween-80) and 133 % of control (dose: 200.0 mg/kg/injection, schedule: Q04DX003 (ip), vehicle: saline with Tween-80).
For the compound `CC(=O)Oc1ccc2c(c1)C(=O)C(Br)C1C2CCC2(C)C(OC(C)=O)CCC12` (stereo not given), the survivor count (dose: 100.0 mg/kg/injection, schedule: Q01DX010 (sc), vehicle: steroid suspending solution) is 6 of 6 and the survivor count (dose: 200.0 mg/kg/injection, schedule: Q01DX010 (sc), vehicle: steroid suspending solution) was 6 of 6.
For `CC([OH2+])CNCCN.CC([OH2+])CNCCN.O=[N+]([O-])[O-].[Cu+2]` (stereo not given), under setting [2], the survivor count is listed as 2 of 6.
As to `CC(=O)OC1CC2c3ccccc3C1c1cccc[n+]12` (stereo not given), the survivor count is recorded as 6 of 6 (dose: 37.5 mg/kg/injection, schedule: Q01DX009 (ip), vehicle: Klucel (hydroxypropylcellulose) (HPC)) and 3 of 6 (dose: 75.0 mg/kg/injection, schedule: Q01DX009 (ip), vehicle: Klucel (hydroxypropylcellulose) (HPC)).
As to `CC(=O)Nc1ccc(S(=O)(=O)Nc2ccc([N+](=O)[O-])cc2)cc1`, the survivor count is listed as 6 of 6 under setting [3] and 5 of 6 under setting [5]. For the same compound, the T/C under setting [4] is 126 % of control.
Turning to `CC1NC(C(=O)O)Cc2cc(O)c(O)cc21` (stereo not given), the survivor count (dose: 25.0 mg/kg/injection, schedule: Q01DX009 (ip), vehicle: Klucel (hydroxypropylcellulose) (HPC)) was 3 of 3.
`COc1cc(NCCCC(C)N)c2ncccc2c1OC` (stereo not given): the survivor count reads like this: under setting [2], 5 of 6; (dose: 100.0 mg/kg/injection, schedule: Q01DX009 (ip), vehicle: saline) 0 of 6; under setting [6], 0 of 6.
As to `COc1ccc(NC(=O)CC(C)=O)cc1`, the survivor count (dose: 25.0 mg/kg/injection, schedule: Q01DX009 (ip), vehicle: saline) is recorded as 6 of 6.
On to `COCn1cc(C(N)=O)c(=O)c2c(N)nc(SC)nc21`, for which the survivor count (dose: 200.0 mg/kg/injection, schedule: Q04DX002 (ip), vehicle: saline with Tween-80) is on record as 6 of 6.
As to `COC(=O)CSc1ncc2cnccn12`, the survivor count runs as follows: under setting [5], 6 of 6; under setting [7], 6 of 6; under setting [8], 5 of 6.
Take `[NH-]C(CCC(N)=O)C(=O)O.[NH-]C(CCC(N)=O)C(=O)O.[Ni+2]` (stereo not given): the survivor count runs as follows: under setting [9], 3 of 5; (dose: 100.0 mg/kg/injection, schedule: Q01DX005 (ip), vehicle: saline with Tween-80) 0 of 5; (dose: 200.0 mg/kg/injection, schedule: Q01DX005 (ip), vehicle: saline with Tween-80) 0 of 5.
Take `NC(Cc1cc(Br)c(O)c(Br)c1)C(=O)O` (stereo not given): under setting [10], the survivor count is given as 4 of 6.
As to `C[S+](C)CCCNC(=O)c1csc(-c2csc(CCNC(=O)c3ccccc3)n2)n1`, under “dose: 64.0 mg/kg/injection, schedule: Q01DX009 (ip), vehicle: saline”, the survivor count was 4 of 10.
With `CCNC(C)(C)C(=O)c1ccco1`, the survivor count under setting [10] is 3 of 6.
As for `IC1CCCOC1[n+]1ccccc1` (stereo not given), where the note is “dose: 50.0 mg/kg/injection, schedule: Q04DX003 (ip), vehicle: saline with Tween-80”, the survivor count is listed as 6 of 6.
For the compound `C[N+](C)(CCCCOCCCC[N+](C)(C)Cc1ccc([N+](=O)[O-])cc1)Cc1ccc([N+](=O)[O-])cc1`, the survivor count runs as follows: (dose: 0.75 mg/kg/injection, schedule: Q01DX009 (ip), vehicle: saline with Tween-80) 6 of 6; (dose: 3.0 mg/kg/injection, schedule: Q01DX009 (ip), vehicle: saline with Tween-80) 4 of 6; (dose: 6.0 mg/kg/injection, schedule: Q04DX003 (ip), vehicle: saline with Tween-80) 0 of 6.
As to `Cc1cc(N2CCOCC2)nc(N2CCOCC2)c1C#N`, the survivor count under setting [9] is reported as 4 of 5.
In the case of `COc1ccc(C(CC(C)=O)c2c(O)c3ccccc3oc2=O)cc1OC` (stereo not given), the survivor count is, setting by setting: under setting [3], 6 of 6; (dose: 50.0 mg/kg/injection, schedule: Q01DX009 (ip), vehicle: water) 5 of 6; under setting [5], 3 of 6; under setting [7], 3 of 6; under setting [8], 2 of 6.
With `O=NO.O=N[O-].O=N[O-].[Co+3].[NH-]CC[N-]CCO.[NH-]CC[N-]CCO`, the survivor count reads like this: under setting [5], 2 of 6; (dose: 200.0 mg/kg/injection, schedule: Q04DX003 (ip), vehicle: water) 1 of 6.
As for `O=C1N(c2ccccc2)CCC12CCNCC2`, under setting [6], the survivor count is on record as 5 of 6.
As for `S=c1[nH]cc2cnccn12`, the T/C was 127 % of control under setting [4]; 127 and 130 % of control under setting [11]. The survivor count is 4 of 6 under setting [1]; 1 of 6 (dose: 400.0 mg/kg/injection, schedule: Q01DX009 (ip), vehicle: saline with Tween-80); 6 of 6 under setting [12].
`COc1ccc(Br)cc1/C=C/[N+](=O)[O-]`: the survivor count was 0 of 6 under setting [11] and 2 of 6 under setting [1].
In the case of `O=C(O)COCC(F)(F)C(F)(F)C(F)(F)COCC(=O)O`, the T/C under setting [10] was 138 % of control.
With `O=c1ccccc(Br)c1O`, under “dose: 50.0 mg/kg/injection, schedule: Q01DX001 (ip), vehicle: Klucel (hydroxypropylcellulose) (HPC)”, the T/C is 131 % of control.
As for `O=C1OC2C(I)C3CCC2C1C3` (stereo not given), the survivor count (dose: 400.0 mg/kg/injection, schedule: Q01DX009 (ip), vehicle: saline) was 5 of 6.
On to `CCN(CC)CC(C)OC(=O)c1ccc(N)cc1` (stereo not given), for which the T/C under setting [2] is 125 % of control. For the same compound, the survivor count under setting [6] is 3 of 6 and the survivor count under setting [10] is 0 of 6.
Regarding `CS(=O)(=O)OCCN(CCOS(C)(=O)=O)c1ccc(/C=N/Nc2ncnc3nc[nH]c23)cc1`, the T/C was 140 % of control (dose: 6.25 mg/kg/injection, schedule: Q04DX003 (ip), vehicle: saline with Tween-80) and 135 % of control [5 of 6 alive] (dose: 12.5 mg/kg/injection, schedule: Q04DX003 (ip), vehicle: saline with Tween-80). The survivor count runs as follows: (dose: 66.0 mg/kg/injection, schedule: Q01DX009 (ip), vehicle: saline with Tween-80) 5 of 6; under setting [11], 3 of 6; (dose: 150.0 mg/kg/injection, schedule: Q01DX009 (ip), vehicle: saline with Tween-80) 2 of 6; under setting [12], 3 of 6.
For the compound `O=C(O)Cc1ccc(C2CCCCC2)cc1`, the survivor count (dose: 200.0 mg/kg/injection, schedule: Q01DX009 (ip), vehicle: Klucel (hydroxypropylcellulose) (HPC)) is reported as 4 of 6.
With `C#CCSc1ncnc2nc[nH]c12`, the survivor count under setting [10] was 0 of 6.
As for `C=CCCCCC/C=C/CCCCCC`, the survivor count (dose: 300.0 mg/kg/injection, schedule: Q01DX010 (ip), vehicle: saline with Tween-80) was 5 of 6.
In the case of `Cn1cnc([N+](=O)[O-])c1S(N)(=O)=O`, the T/C (dose: 12.5 mg/kg/injection, schedule: Q01DX009 (ip), vehicle: saline with Tween-80) is 132 % of control; the T/C (dose: 25.0 mg/kg/injection, schedule: Q01DX009 (ip), vehicle: saline with Tween-80) is 144 % of control; the T/C under setting [4] is 135 % of control; the T/C under setting [11] is 144 % of control.
For `CCOc1ccc(NC(=O)OCCN2CCN(CCc3ccccc3)C(C)C2)cc1` (stereo not given), under setting [1], the survivor count is 0 of 6.
